Measured values as given in the supplement of paper PMC8728848.
Some of the results follow.

Tests used:
Assay in all cases: glycan array binding signal (z-score within array); higher = stronger binding
Conditions in all cases: glycan notation: IUPAC condensed, linker removed
[1] = target: Gal(b1-3)GlcNAc(b1-2)Man(a1-3)[Gal(b1-3)GlcNAc(b1-2)Man(a1-6)]Man(b1-4)GlcNAc(b1-4)[Fuc(a1-6)]GlcNAc
Method in brief: (§1)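 Glycan array binding is given as a within-array Z-score, which can be read as non-binding when negative. The arrays, 3228 of them, came from the Consortium for Functional Glycomics database and were retained only where the protein sequence was available. Z-scores were averaged across arrays of the same protein sequence at different concentrations or buffers and across linkers.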

[2] = target: Gal(b1-3)GlcNAc(b1-2)Man(a1-3)[GlcNAc(b1-4)][Gal(b1-3)GlcNAc(b1-2)Man(a1-6)]Man(b1-4)GlcNAc(b1-4)GlcNAc
Method in brief: as §1

[3] = target: Gal(b1-3)GlcNAc(b1-2)[Gal(b1-3)GlcNAc(b1-6)]Man(a1-6)[Gal(b1-3)GlcNAc(b1-2)Man(a1-3)]Man(b1-4)GlcNAc(b1-4)GlcNAc
Method in brief: as §1

[4] = target: Gal(b1-3)GlcNAc(b1-3)Gal(b1-3)GlcNAc
Method in brief: as §1

[5] = target: Gal(b1-3)GlcNAc(b1-3)Gal(b1-4)Glc
Method in brief: as §1

[6] = target: Gal(b1-3)GlcNAc(b1-3)Gal(b1-4)GlcNAc
Method in brief: as §1

[7] = target: Gal(b1-3)GlcNAc(b1-3)Gal(b1-4)GlcNAc(b1-2)Man(a1-3)[Gal(b1-3)GlcNAc(b1-3)Gal(b1-4)GlcNAc(b1-2)Man(a1-6)]Man(b1-4)GlcNAc(b1-4)GlcNAc
Method in brief: as §1

[8] = target: Gal(b1-3)GlcNAc(b1-3)Gal(b1-4)GlcNAc(b1-2)[Gal(b1-3)GlcNAc(b1-3)Gal(b1-4)GlcNAc(b1-6)]Man(a1-6)[Gal(b1-3)GlcNAc(b1-3)Gal(b1-4)GlcNAc(b1-2)Man(a1-3)]Man(b1-4)GlcNAc(b1-4)[Fuc(a1-6)]GlcNAc
Method in brief: as §1

[9] = target: Gal(b1-3)GlcNAc(b1-3)Gal(b1-4)GlcNAc(b1-3)Gal(b1-4)GlcNAc(b1-2)[Gal(b1-3)GlcNAc(b1-3)Gal(b1-4)GlcNAc(b1-3)Gal(b1-4)GlcNAc(b1-6)]Man(a1-6)[Gal(b1-3)GlcNAc(b1-3)Gal(b1-4)GlcNAc(b1-3)Gal(b1-4)GlcNAc(b1-2)Man(a1-3)]Man(b1-4)GlcNAc(b1-4)[Fuc(a1-6)]GlcNAc
Method in brief: as §1

[10] = target: Gal(b1-3)GlcNAc(b1-3)Gal(b1-4)GlcNAc(b1-6)[Gal(b1-3)GlcNAc(b1-3)]Gal(b1-4)Glc
Method in brief: as §1

[11] = target: Gal(b1-3)GlcNAc(b1-3)Gal(b1-4)[Fuc(a1-3)]GlcNAc
Method in brief: as §1

[12] = target: Gal(b1-3)GlcNAc(b1-3)Gal(b1-4)[Fuc(a1-3)]GlcNAc(b1-6)[Gal(b1-3)GlcNAc(b1-3)]Gal(b1-4)Glc
Method in brief: as §1

[13] = target: Gal(b1-3)GlcNAc(b1-3)GalNAc
Method in brief: as §1

[14] = target: Gal(b1-3)GlcNAc(b1-6)Gal(b1-4)GlcNAc
Method in brief: as §1

[15] = target: Gal(b1-3)GlcNAc(b1-6)GalNAc
Method in brief: as §1

[16] = target: Gal(b1-3)GlcNAc(b1-6)[Gal(b1-3)]GalNAc
Method in brief: as §1

Gal(b1-3)GlcNAc6S = target: Gal(b1-3)GlcNAc6S
Method in brief: as §1

[17] = target: Gal(b1-3)[Fuc(a1-4)]GlcNAc
Method in brief: as §1

[18] = target: Gal(b1-3)[Fuc(a1-4)]GlcNAc(b1-2)Man
Method in brief: as §1

[19] = target: Gal(b1-3)[Fuc(a1-4)]GlcNAc(b1-2)Man(a1-3)[Gal(b1-3)[Fuc(a1-4)]GlcNAc(b1-2)Man(a1-6)]Man(b1-4)GlcNAc(b1-4)[Fuc(a1-6)]GlcNAc
Method in brief: as §1

[20] = target: Gal(b1-3)[Fuc(a1-4)]GlcNAc(b1-3)Gal(b1-3)[Fuc(a1-4)]GlcNAc
Method in brief: as §1

[21] = target: Gal(b1-3)[Fuc(a1-4)]GlcNAc(b1-3)Gal(b1-4)[Fuc(a1-3)]GlcNAc
Method in brief: as §1

[22] = target: Gal(b1-3)[Fuc(a1-4)]GlcNAc(b1-6)GalNAc
Method in brief: as §1

[23] = target: Gal(b1-3)[GlcNAc(b1-6)]GalNAc
Method in brief: as §1

[24] = target: Gal(b1-3)[Neu5Ac(a2-6)]GalNAc
Method in brief: as §1

[25] = target: Gal(b1-3)[Neu5Ac(a2-6)]GlcNAc(b1-4)Gal(b1-4)Glc
Method in brief: as §1

[26] = target: Gal(b1-3)[Neu5Ac(b2-6)]GalNAc
Method in brief: as §1

Gal(b1-4)Gal = target: Gal(b1-4)Gal
Method in brief: as §1

[27] = target: Gal(b1-4)GalNAc(a1-3)[Fuc(a1-2)]Gal(b1-4)GlcNAc
Method in brief: as §1

[28] = target: Gal(b1-4)GalNAc(b1-3)[Fuc(a1-2)]Gal(b1-4)GlcNAc
Method in brief: as §1

Gal(b1-4)Glc = target: Gal(b1-4)Glc
Method in brief: as §1

Gal(b1-4)Glc6S = target: Gal(b1-4)Glc6S
Method in brief: as §1

Gal(b1-4)GlcNAc = target: Gal(b1-4)GlcNAc
Method in brief: as §1

[29] = target: Gal(b1-4)GlcNAc(a1-6)Gal(b1-4)GlcNAc
Method in brief: as §1

Gal(b1-4)GlcNAc(b1-2)Man = target: Gal(b1-4)GlcNAc(b1-2)Man
Method in brief: as §1

[30] = target: Gal(b1-4)GlcNAc(b1-2)Man(a1-3)Man(b1-4)GlcNAc(b1-4)GlcNAc
Method in brief: as §1

[31] = target: Gal(b1-4)GlcNAc(b1-2)Man(a1-3)[Gal(b1-4)GlcNAc(b1-2)Man(a1-6)]Man(b1-4)GlcNAc(b1-4)GlcNAc
Method in brief: as §1

B1: Epa3to2 (Candida glabrata) (protein)
chain: MGSSHHHHHHSSGLVPRGSHMKRELSSQNPFGYPIGCSPQDVAIIPGLTMELYSYPIVSGTPPNCYDASYVDPEYPRTGYLKRKMVGKSTGVTGNLNYKYSVEKACMVKYGNLPAGYNYNEPLTVSNFTMILYGYFKAQTTGLHTFFVNADDLLYINFGAGNAFDCCKREDSKTKLGEYVAYDIWHVDSSKNKVSLFLEKDLYYPIRMFFNNRDNNSSLDLSFSVNGATDQISDFSGYLYSVPDQPDTCPAHIGYDTTCR
glycan array binding signal (z-score) [1]: 0.013
glycan array binding signal (z-score) [2]: 0.033
glycan array binding signal (z-score) [3]: 0.52
glycan array binding signal (z-score) [4]: -1.5
glycan array binding signal (z-score) [5]: -0.861
glycan array binding signal (z-score) [6]: -0.803
glycan array binding signal (z-score) [7]: -0.538
glycan array binding signal (z-score) [8]: 0.293
glycan array binding signal (z-score) [9]: 0.431
glycan array binding signal (z-score) [10]: 0.876
glycan array binding signal (z-score) [11]: 0.065
glycan array binding signal (z-score) [12]: 0.205
glycan array binding signal (z-score) [13]: -0.784
glycan array binding signal (z-score) [14]: 0.93
glycan array binding signal (z-score) [15]: -0.753
glycan array binding signal (z-score) [16]: -0.743
glycan array binding signal (z-score) (Gal(b1-3)GlcNAc6S): 0.219
glycan array binding signal (z-score) [17]: -0.481
glycan array binding signal (z-score) [18]: 0.761
glycan array binding signal (z-score) [19]: -0.358
glycan array binding signal (z-score) [20]: -1.46
glycan array binding signal (z-score) [21]: -1.49
glycan array binding signal (z-score) [22]: -0.758
glycan array binding signal (z-score) [23]: 0.111
glycan array binding signal (z-score) [24]: 0.19
glycan array binding signal (z-score) [25]: 0.314
glycan array binding signal (z-score) [26]: -1.28
glycan array binding signal (z-score) (Gal(b1-4)Gal): -1.15
glycan array binding signal (z-score) [27]: -1.03
glycan array binding signal (z-score) [28]: 0.334
glycan array binding signal (z-score) (Gal(b1-4)Glc): -0.667
glycan array binding signal (z-score) (Gal(b1-4)Glc6S): 0.174
glycan array binding signal (z-score) (Gal(b1-4)GlcNAc): 0.032
glycan array binding signal (z-score) [29]: 0.937
glycan array binding signal (z-score) (Gal(b1-4)GlcNAc(b1-2)Man): -0.96
glycan array binding signal (z-score) [30]: 0.12
glycan array binding signal (z-score) [31]: 1.39
